# Data source: PubChem BioAssay AID743121 (NCATS, 2013)
# Purpose: 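Partners whose loss is lethal together with topoisomerase I blockade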 (primary screen)
# Cell system: MDA-MB-231 cells, a human breast cancer line
# Knock-down reagent: single siRNA against human genes, 20 nM siRNA (0.8 pmol per well)
# Duration: 120 h (drug added 48 h after transfection, read 72 h later)
# Conditions: camptothecin 20 nM (about EC30) for 72 h; vehicle 0.1% DMSO in parallel plates
# Read-out: 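CellTiter-Glo ATP signal, scaled to control siRNA as percent viability; sensitisation given as log2 of untreated divided by camptothecin-treated viability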
# Direction: log2 vehicle/camptothecin viability: higher = stronger sensitisation to camptothecin; viability with camptothecin and viability without drug: higher = more viable cells
# Active means: 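Active genes have an RSA gene-level p-value below 0.001, computed from the ratios of their separate siRNAs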
# Shown is a random part of about 26,000 deposited reagents. 167 of them (0.63%) count as active. 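Calls are per gene from RSA p-values that are not deposited; an individual active-marked siRNA can sensitise only weakly.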
Gene,PubChem SID,log2 vehicle/camptothecin viability,viability with camptothecin (% of control),viability without drug (% of control),call
KCNQ4,SID164401941,0.309,68.6,85,inactive
KCNQ4,SID164401944,-0.265,86,71.6,inactive
KCNQ4,SID164401945,0.352,81.4,104,inactive
KCNQ4,SID164401946,-0.25,83.2,70,inactive
WNT1,SID164394051,-0.318,130,104,inactive
WNT1,SID164394053,-0.152,91,81.9,inactive
WNT1,SID164394054,-0.496,104,73.9,inactive
CIB3,SID164565081,-0.554,7.6,5.17,inactive
CIB3,SID164565083,0.133,58.5,64.1,inactive
CIB3,SID164565084,-0.2,67.3,58.5,inactive
CIB3,SID164565085,-0.19,62.8,55,inactive
GNB4,SID164498638,-0.562,42.3,28.7,inactive
GNB4,SID164498639,0.0416,83.3,85.7,inactive
GNB4,SID164498641,0.0507,47.5,49.2,inactive
GNB4,SID164498646,-0.173,109,96.7,inactive
GDF1,SID164366326,-0.411,90.4,68,inactive
GDF1,SID164366329,-0.526,91.9,63.8,inactive
GDF1,SID164366332,0.313,60,74.5,inactive
ARHGEF2,SID164402241,-0.361,78,60.8,inactive
ARHGEF2,SID164402242,-0.324,91.4,73,inactive
ARHGEF2,SID164402244,-0.514,78.4,54.9,inactive
ARHGEF2,SID164402245,-0.348,73,57.3,inactive
EIF6,SID164372035,-0.0781,84.6,80.2,inactive
EIF6,SID164372036,0.0719,62.1,65.3,inactive
EIF6,SID164372037,-0.213,57.7,49.7,inactive
NENF,SID164468615,0.0632,94.9,99.2,inactive
NENF,SID164468616,0.0207,98.6,100,inactive
NENF,SID164468617,0.15,31.8,35.3,inactive
NENF,SID164468618,-0.131,83.4,76.2,inactive
AMN,SID164538683,-0.302,77.9,63.2,inactive
AMN,SID164538684,-0.177,85.2,75.3,inactive
AMN,SID164538689,-0.517,62.7,43.8,inactive
SLC10A5,SID164659647,-0.477,95.6,68.7,inactive
SLC10A5,SID164659648,-0.275,107,88.2,inactive
SLC10A5,SID164659649,0.0618,97.2,101,inactive
SLC10A5,SID164659650,0.252,45.1,53.7,inactive
ADRB3,SID164352600,-0.471,58.1,41.9,inactive
ADRB3,SID164352601,-0.487,39.5,28.2,inactive
ADRB3,SID164352602,0.155,26.3,29.3,inactive
ADRB3,SID164352604,-0.175,46.2,40.9,inactive
CXCR2,SID164371337,-0.244,64.7,54.6,inactive
CXCR2,SID164371338,-0.0798,109,103,inactive
CXCR2,SID164371339,0.0717,45.1,47.4,inactive
CXCR2,SID164371340,0.688,12.3,19.8,inactive
GRIN3A,SID164563073,-0.0481,111,107,inactive
GRIN3A,SID164563074,-0.223,85.3,73.1,inactive
GRIN3A,SID164563075,0.032,85,86.9,inactive
GRIN3A,SID164563077,-0.251,115,96.7,inactive
TMPRSS12,SID164614682,-0.507,86.9,61.1,inactive
TMPRSS12,SID164614683,-0.608,118,77.3,inactive
TMPRSS12,SID164614686,0.0436,97.7,101,inactive
TMPRSS12,SID164614688,0.00155,67.4,67.5,inactive
LNX2,SID164593152,-0.216,7.66,6.59,inactive
LNX2,SID164593153,-0.256,111,93.2,inactive
LNX2,SID164593157,-0.00429,31.4,31.3,inactive
LNX2,SID164593159,-0.215,129,111,inactive
UBE2T,SID164465036,-0.0128,81,80.3,inactive
UBE2T,SID164465038,-0.389,47.3,36.1,inactive
UBE2T,SID164465041,0.101,106,113,inactive
UBE2T,SID164465042,-0.0967,63.5,59.4,inactive
HSDL2,SID164543917,0.0268,51.1,52.1,inactive
HSDL2,SID164543919,-0.295,113,91.7,inactive
HSDL2,SID164543920,-0.184,75.4,66.4,inactive
HSDL2,SID164543922,-0.431,96.3,71.5,inactive
PPP2R5E,SID164382255,-0.195,125,109,inactive
PPP2R5E,SID164382257,-0.244,101,85.4,inactive
PPP2R5E,SID164382258,-0.0204,107,106,inactive
PPP2R5E,SID164382260,-0.302,104,84.4,inactive

An excerpt of the results above, as a working copy:
Gene,PubChem SID,log2 vehicle/camptothecin viability,viability with camptothecin (% of control),viability without drug (% of control),call
SLC10A5,SID164659647,-0.477,95.6,68.7,inactive
SLC10A5,SID164659648,-0.275,107,88.2,inactive
SLC10A5,SID164659649,0.0618,97.2,101,inactive
SLC10A5,SID164659650,0.252,45.1,53.7,inactive
ADRB3,SID164352600,-0.471,58.1,41.9,inactive
ADRB3,SID164352601,-0.487,39.5,28.2,inactive
